This data set in a line: general procedure: Fmoc solid-phase peptide synthesis; Chlorotrityl resin; HBTU/DIEA. As to conditions: conjugation step, sequence written open.

On to MMAE-PAB-(Cit-Val)-BCY3900, for which the “final purity (method not given)” value (bicyclic) stood at 96.5%. For the same substance, the conjugation yield (on BCY3900, bicyclic) is on record as 73.4%.

These data come from patent US12540161B2 (BicycleTx Limited, priority 2020, dated 2026).
